According to PubChem BioAssay AID328 (DTP/NCI, 2004):
The list shows only some results of the screen, not a fair sample: it gathers tests that were run many times, whatever their T/C, doses with no T/C, and many T/C values between a quarter and a half above the control. Further doses and runs are listed elsewhere. T/C gives the treated animals as a percentage of the vehicle group. Some entries give survivors of the animals treated and no T/C: the source files T/C as zero there, which appears to mark a toxic dose or a test without result, not a measured value. Some doses without a T/C left all or most animals alive at the check, yet need not have been tolerated: survival well below the control is almost never listed, so the zero probably covers shortened survival too. Survivors were counted at the toxicity check, usually on the fifth day, unless a day is given; later deaths do not show. Schedule codes are those of the source, read here as Q, the interval in days (D) or hours (H), X, the number of doses. Some entries hold several experiments; the results are listed from low to high. Where survival is the endpoint, the PubChem record calls one and a half times the control and up active, and a quarter to a half above the control has no call in these data; cut-offs in other NCI protocols can differ. Some T/C values carry the count of animals alive at the toxicity check (mostly the fifth day); where none is given, no animal had died by that day. Non-standard residues stand in square brackets, D forms with d. Residues, ends and D or L forms follow the SMILES beside them. Ac5c = NC1(C(=O)O)CCCC1

Tested on: BDF1 mice, P388 leukemia ip, median survival T/C
Test: NCI In Vivo Anticancer Drug Screen. Data for tumor model P388 Leukemia (intraperitoneal) in B6D2F1 (BDF1) mice
Details: T/C endpoint: median survival time, higher T/C = longer survival
Procedure, shortened: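 Mice carrying the transplantable tumour receive compound or vehicle. Survival is followed in each arm, and the treated measure is divided by the vehicle measure.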

[1] = dose: 25.0 mg/kg/injection, schedule: Q01DX009 (ip), vehicle: saline with Tween-80
[2] = dose: 50.0 mg/kg/injection, schedule: Q01DX009 (ip), vehicle: saline with Tween-80
[3] = dose: 100.0 mg/kg/injection, schedule: Q01DX009 (ip), vehicle: saline with Tween-80
[4] = dose: 200.0 mg/kg/injection, schedule: Q01DX009 (ip), vehicle: saline with Tween-80
[5] = dose: 25.0 mg/kg/injection, schedule: Q04DX003 (ip), vehicle: saline with Tween-80

COC(=O)[C@@]12OC[C@]34[C@H]([C@@H](O)[C@@H]1O)[C@@]1(C)CC(=O)C(O)=C(C)[C@@H]1C[C@H]3OC(=O)[C@H](OC(=O)c1ccccc1)[C@@H]24
survivor count (dose: 15.0 micrograms/kg/injection, schedule: Q01DX009 (ip), vehicle: saline + alcohol): 6 of 6
T/C (dose: 62.0 micrograms/kg/injection, schedule: Q01DX009 (ip), vehicle: saline + alcohol): 140 % of control
T/C (dose: 125.0 micrograms/kg/injection, schedule: Q01DX009 (ip), vehicle: saline + alcohol): 135 % of control
T/C (dose: 250.0 micrograms/kg/injection, schedule: Q01DX009 (ip), vehicle: saline + alcohol): 125 % of control
T/C (dose: 500.0 micrograms/kg/injection, schedule: Q01DX009 (ip), vehicle: saline + alcohol): 135 % of control
T/C (dose: 1000.0 micrograms/kg/injection, schedule: Q01DX009 (ip), vehicle: saline + alcohol): 145 % of control
T/C (dose: 4000.0 micrograms/kg/injection, schedule: Q01DX009 (ip), vehicle: saline + alcohol): 140 % of control

C=CCN(CC=C)P(=O)(N1CC1)N1CC1C (stereo not given)
T/C (dose: 0.36 mg/kg/injection, schedule: Q01DX009 (ip), vehicle: saline): 125 and 145 % of control
T/C (dose: 0.5 mg/kg/injection, schedule: Q04DX003 (ip), vehicle: saline): 130 % of control
T/C (dose: 0.56 mg/kg/injection, schedule: Q01DX009 (ip), vehicle: saline): 137 % of control
T/C (dose: 0.63 mg/kg/injection, schedule: Q01DX009 (ip), vehicle: saline): 136 % of control
T/C (dose: 0.88 mg/kg/injection, schedule: Q04DX003 (ip), vehicle: saline): 145 % of control
T/C (dose: 1.0 mg/kg/injection, schedule: Q04DX003 (ip), vehicle: saline): 130 % of control
T/C (dose: 1.25 mg/kg/injection, schedule: Q01DX009 (ip), vehicle: saline): 86, 92, 104, 132, 145 % of control
T/C (dose: 1.25 mg/kg/injection, schedule: Q04DX003 (ip), vehicle: saline): 131 % of control
survivor count (dose: 1.87 mg/kg/injection, schedule: Q01DX009 (ip), vehicle: saline): 6 of 6
survivor count (dose: 2.5 mg/kg/injection, schedule: Q01DX009 (ip), vehicle: saline): 6 of 6
survivor count (dose: 5.0 mg/kg/injection, schedule: Q01DX009 (ip), vehicle: saline): 6 of 6
survivor count (dose: 10.0 mg/kg/injection, schedule: Q04DX003 (ip), vehicle: saline): 6 of 6
survivor count (dose: 20.0 mg/kg/injection, schedule: Q04DX003 (ip), vehicle: saline): 5 of 6

Cc1c(-c2ccc(C(=N)N)cc2)oc(-c2ccc(C(=N)N)cc2)c1C
T/C (dose: 6.25 mg/kg/injection, schedule: Q01DX009 (ip), vehicle: saline with Tween-80): 127 % of control
T/C (dose: 12.5 mg/kg/injection, schedule: Q01DX009 (ip), vehicle: saline with Tween-80): 130 % of control
survivor count [1]: 6 of 6
survivor count [2]: 0 of 6
survivor count [3]: 0 of 6
survivor count [4]: 0 of 6

CCc1cc(O)c(Cl)c(C)c1Cl
survivor count (dose: 200.0 mg/kg/injection, schedule: Q01DX009 (ip), vehicle: gum acacia): 6 of 6

Cc1ccnc(NS(=O)(=O)c2ccc(N=Nc3nc4[nH]c(N)nc(=S)c4[nH]3)cc2)n1
survivor count (dose: 12.5 mg/kg/injection, schedule: Q01DX009 (ip), vehicle: Klucel (hydroxypropylcellulose) (HPC)): 6 of 6
survivor count (dose: 25.0 mg/kg/injection, schedule: Q01DX009 (ip), vehicle: Klucel (hydroxypropylcellulose) (HPC)): 6 of 6
survivor count (dose: 50.0 mg/kg/injection, schedule: Q01DX009 (ip), vehicle: Klucel (hydroxypropylcellulose) (HPC)): 5 of 6

C[C@]12CC[C@H]3C(=CCc4cc(O)ccc43)[C@@H]1CCC2=O
survivor count (dose: 100.0 mg/kg/injection, schedule: Q01DX009 (ip), vehicle: Klucel (hydroxypropylcellulose) (HPC)): 6 of 6
survivor count (dose: 400.0 mg/kg/injection, schedule: Q01DX009 (ip), vehicle: Klucel (hydroxypropylcellulose) (HPC)): 6 of 6

CCCCCCOP(=O)(N1CC1C)N1CC1C (stereo not given)
T/C (dose: 66.0 mg/kg/injection, schedule: Q01DX009 (ip), vehicle: saline): 143 % of control
T/C (dose: 150.0 mg/kg/injection, schedule: Q01DX009 (ip), vehicle: saline): 147 % of control [5 of 6 alive]

CCCCOCN(COCCCC)c1ccc(C)cc1
survivor count [4]: 0 of 6

CC(O)C(C)(O)C(=O)O (stereo not given)
survivor count (dose: 400.0 mg/kg/injection, schedule: Q04DX003 (ip), vehicle: saline): 3 of 6

NCC(=O)NC1(C(=O)O)CCCC1 (H-Gly-[Ac5c]-OH)
survivor count (dose: 400.0 mg/kg/injection, schedule: Q01DX009 (ip), vehicle: saline): 6 of 6

CN(Cc1ccccc1)c1ccc(/C=C/c2ccnc3ccccc23)cc1
survivor count (dose: 200.0 mg/kg/injection, schedule: Q01DX001 (ip), vehicle: saline with Tween-80): 5 of 6

C[P+](c1ccc(F)cc1)(c1ccc(F)cc1)c1ccc(F)cc1
survivor count (dose: 100.0 mg/kg/injection, schedule: Q04DX003 (ip), vehicle: Klucel (hydroxypropylcellulose) (HPC)): 5 of 6

CC(=O)c1ccc[n+](C)c1
survivor count (dose: 50.0 mg/kg/injection, schedule: Q01DX009 (ip), vehicle: saline): 6 of 6

COc1cc2cc(c1Cl)N(C)C(=O)CC(OC(=O)C(C)C)C1(C)OC1C(C)C1CC(O)(NC(=O)O1)C(OC)/C=C/C=C(/C)C2OC(C)=O (stereo not given)
T/C (dose: 0.1 micrograms/kg/injection, schedule: Q01DX009 (ip), vehicle: saline + alcohol): 125 % of control
T/C (dose: 0.2 micrograms/kg/injection, schedule: Q01DX009 (ip), vehicle: saline + alcohol): 125 % of control
T/C (dose: 0.4 micrograms/kg/injection, schedule: Q01DX009 (ip), vehicle: saline + alcohol): 133 % of control
T/C (dose: 0.8 micrograms/kg/injection, schedule: Q01DX009 (ip), vehicle: saline + alcohol): 137 % of control
survivor count (dose: 50.0 micrograms/kg/injection, schedule: Q01DX009 (ip), vehicle: saline + alcohol): 6 of 6

Oc1cccc2c1[O][Sb][O]2
T/C [1]: 142 % of control
T/C [5]: 133 % of control
T/C (dose: 37.5 mg/kg/injection, schedule: Q04DX003 (ip), vehicle: saline with Tween-80): 133 % of control
T/C [2]: 147 % of control
survivor count [3]: 0 of 6

O=C(/C=C\c1ccnc2ccccc12)c1ccc([N+](=O)[O-])cc1
survivor count (dose: 50.0 mg/kg/injection, schedule: Q04DX003 (ip), vehicle: water): 6 of 6

N=C(N)SCc1c2ccccc2c(CSC(=N)N)c2ccccc12
T/C (dose: 5.0 mg/kg/injection, schedule: Q01DX010 (ip), vehicle: saline): 141 % of control
T/C (dose: 40.0 mg/kg/injection, schedule: Q01DX010 (ip), vehicle: saline): 145 % of control

NC(N)=N/N=C(/c1ccccc1)c1ccc(F)cc1
T/C (dose: 2.5 mg/kg/injection, schedule: Q01DX009 (ip), vehicle: Klucel (hydroxypropylcellulose) (HPC)): 135 % of control
survivor count (dose: 40.0 mg/kg/injection, schedule: Q01DX009 (ip), vehicle: Klucel (hydroxypropylcellulose) (HPC)): 0 of 6 and 6 of 6
survivor count (dose: 40.0 mg/kg/injection, schedule: Q01DX009 (ip), vehicle: saline): 5 of 6
survivor count (dose: 80.0 mg/kg/injection, schedule: Q01DX009 (ip), vehicle: Klucel (hydroxypropylcellulose) (HPC)): 0 of 6
survivor count (dose: 160.0 mg/kg/injection, schedule: Q01DX009 (ip), vehicle: Klucel (hydroxypropylcellulose) (HPC)): 0 of 6

CC1(C)N=C(N)N=C(N)N1c1ccc(OCc2ccc(C(=O)Nc3cccc(S(=O)(=O)F)c3)cc2)c(Cl)c1
T/C (dose: 6.25 mg/kg/injection, schedule: Q04DX003 (ip), vehicle: Klucel (hydroxypropylcellulose) (HPC)): 138 % of control

COc1ccc(/C(C#N)=C2C=C/C(=N\O)C(C)=C/2Cl)cc1
survivor count (dose: 100.0 mg/kg/injection, schedule: Q04DX003 (ip), vehicle: saline with Tween-80): 6 of 6
survivor count (dose: 200.0 mg/kg/injection, schedule: Q04DX003 (ip), vehicle: saline with Tween-80): 6 of 6
survivor count (dose: 400.0 mg/kg/injection, schedule: Q04DX003 (ip), vehicle: saline with Tween-80): 6 of 6

ClCCN(CCCl)CCCN1c2ccccc2Sc2ccc(Cl)cc21
T/C (dose: 3.1 mg/kg/injection, schedule: Q04DX003 (ip), vehicle: saline with Tween-80): 138 % of control
T/C (dose: 12.5 mg/kg/injection, schedule: Q04DX003 (ip), vehicle: saline with Tween-80): 128 % of control
survivor count [5]: 4 of 6
